For 41 molecules, AC50 results are on record in PubChem BioAssay AID493014 (National Center for Advancing Translational Sciences (NCATS), 2011).

The nature of the assay: qHTS Assay to Find Inhibitors of Chronic Active B-Cell Receptor Signaling. Particulars: ABC-DLBCL IkBa-CBG/CBR reporter, luminescence ratio (green luciferase fused to IkBa over red control in TMD8 lymphoma cells), 4 h. The method, boiled down:
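Cell line TMD8 (human ABC DLBCL), stably expressing tet-inducible CBG68-IkBa fusion and CBR; IMDM/0.5% FBS; cpd up to 46 uM; dox induction, 4 h, 37C/5% CO2; dual luminescence; green/red ratio; MG132 control.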

Where [1] appears, read: measured here: CBR red luminescence, cell number.
The mark [2] stands for this setting: measured here: IkBa-CBG green luminescence.

Some of the results follow. These are further read-outs of the screen, such as a control signal, another cell line or another target. No call is given for them. Most of these compounds were active or inconclusive in the main read-out, so they are no random draw. The note in brackets gives the kind of curve behind each potency; many fits are weak.

For orientation: AC50 means the concentration at which the activity in the assay is half-maximal.

`C[C@]12CC(=CO)C(=O)C[C@@H]1CC[C@@H]1[C@@H]2CC[C@@]2(C)[C@H]1CC[C@]2(C)O`: the AC50 under setting [1] was 35.5 µM [falling, single point].
Still for that read-out and setting: the value for `Cc1ccc(-c2nc(N(C)C3CCN(C)CC3)c3ccccc3n2)cc1` was 25.9 µM [falling, single point].
`COC1=CC(=O)OC(/C=C/c2ccccc2)C1` (centres undefined): the AC50 is 32.6 µM [rising, single point] under setting [1] and 18.4 µM [rising, single point] under setting [2].
As to `CC(Cc1ccccc1)[n+]1cc(/N=C(\[O-])N(C)C)on1` (centres undefined), under setting [1], the concentration at half-maximal activity (AC50) was 8.91 µM [rising, partial curve, poor fit].
Take `Cn1ncnc2c(=O)n(C)c(=O)nc1-2`: under setting [1], the AC50 is 3.55 µM [falling, full curve].
For `COc1ccc(CC(=O)N(CCN(C)C)CC2CCCN(Cc3ccccc3F)C2)cc1` (centres undefined), under setting [1], the AC50 is 31.6 µM [falling, single point].
Turning to `O=c1c2ccccc2nc(SCC2CCCCO2)n1-c1ccccc1` (centres undefined), the half-maximal activity concentration (AC50) under setting [1] is 3.66 µM [rising, partial curve, poor fit].
Consider `CC(=O)C1C2c3ccccc3OC1(C)N=c1s/c(=C/c3cn(C)nc3C)c(=O)n12` (centres undefined), for which the AC50 under setting [1] is 6.31 µM [falling, full curve, poor fit].
Same read-out and setting: for `O=C(Oc1ccc2c(c1)CCC2)N1CCOCC1` the value was 20.6 µM [rising, partial curve, poor fit]; for `CC1(C)OC(c2ccccc2)=C/C(=C/C=C2C(=O)NC(=S)NC2=O)O1`, 17.8 µM [falling, single point]; for `CC(C)(C)n1cc(C(=O)c2ccccc2)cc1-c1ccccc1`, 7.08 µM [rising, full curve, poor fit].
In the case of `C[C@H]1CCC[C@H](O)CCCCCc2cc(O)cc(O)c2C(=O)O1`, the AC50 under setting [1] is 12.6 µM [falling, partial curve].
Same read-out and setting: the value for `O=c1oc2ccccc2n1CSC1=NCCS1` was 20 µM [falling, partial curve, poor fit]; that for `CC(C)OCCCNC(=O)c1ccc2c(c1)NC(=O)c1ccccc1S2` was 22.4 µM [falling, single point]; that for `O=C1NC(=O)C2(Cc3ccccc3N3CCCC32)C(=O)N1` (centres undefined) was 2.06 µM [falling, partial curve, poor fit].
On to `FC(F)(F)c1cccc(-n2nnnc2C2(N3CCOCC3)CCCCC2)c1`, for which, under setting [1], the concentration at half-maximal activity (AC50) was 6.31 µM [falling, single point].
With `Cc1cc(N2C(=O)CC(N3CCC(n4c(=O)[nH]c5ccccc54)CC3)C2=O)no1` (centres undefined), the half-maximal activity concentration (AC50) under setting [1] was 29.1 µM [rising, single point].
The same measure, in the same setting: the value for `Cc1ccc(OCCOc2cccc(C=C3C(=O)NC(=O)NC3=O)c2)c(C)c1` was 12.6 µM [falling, partial curve].
Same read-out and setting: for `CC1=CC(C)C(/C=N/N=C(N)N)C(C)C1` (centres undefined) the value was 35.5 µM [falling, single point]; for `CN1CCN(CCC(=O)OC2CC3CCC(C2)N3C)CC1` (centres undefined), 23.1 µM [falling, partial curve, poor fit]; for `CC(=O)OC1(Cc2ccccc2)CN2CCC1c1ccccc12` (centres undefined), 11.2 µM [falling, partial curve, poor fit].
For the molecule `Cc1cc(NCCN)nc2ccccc12`, the concentration at half-maximal activity (AC50) under setting [1] is 13 µM [falling, partial curve].
As for `Cc1[nH]c2ccccc2c1C1=CCNCC1`, the AC50 under setting [1] is 11.2 µM [falling, single point].
With `CC(C)c1ccc(-n2c(O)c(/C=N/NC(=O)c3ccccc3O)c(=O)[nH]c2=S)cc1`, under setting [1], the concentration at half-maximal activity (AC50) was 0.447 µM [falling, full curve].
Consider `Cn1cc(C(=O)OCC(=O)NC2(C#N)CCCC2)c2ccccc21`, for which the half-maximal activity concentration (AC50) under setting [1] was 0.517 µM [rising, full curve, poor fit].
The same measure, in the same setting: for `Cc1cc(C)nc(NC2=NCCS2)n1` the value was 0.631 µM [rising, full curve, poor fit].
In the case of `Cc1ccsc1/C=C1\SC(=S)N(CC2CCCO2)C1=O` (centres undefined), the half-maximal activity concentration (AC50) under setting [1] is 4.47 µM [rising, partial curve, poor fit].
As for `COc1ccccc1CN1CCN(C(=O)Cc2ccccc2)CC1`, under setting [1], the AC50 was 35.5 µM [rising, partial curve, poor fit].
Consider `CC(=O)c1cccc(NC2=NCC(C)S2)c1` (centres undefined), for which the half-maximal activity concentration (AC50) under setting [1] is 6.51 µM [falling, single point].
For `CCCCSC1=NN1c1nc(N)nc(C)c1CC`, under setting [1], the half-maximal activity concentration (AC50) is 0.206 µM [falling, partial curve, poor fit].
Still for that read-out and setting: for `CC(C)c1ccc(NC(=O)[C@H](Cc2c[nH]c3ccccc23)NC(=O)[C@@H]2Cc3ccccc3CN2)cc1` the value was 11.2 µM [falling, partial curve, poor fit]; for `CN(C)c1ccc(P(=O)(OCc2ccccc2)C(O)c2ccccc2F)cc1` (centres undefined), 5.62 µM [rising, single point].
On to `COc1ccc(C2SCC(=O)Nc3c2c(C)nn3-c2ccccc2)cc1` (centres undefined), for which, under setting [1], the AC50 was 20.6 µM [rising, single point].
`CCOc1cc(/C=C2/C(=O)NC(=O)N(c3ccc(CC)cc3)C2=O)ccc1OC(=O)c1cccs1`: under setting [1], the half-maximal activity concentration (AC50) is 35.5 µM [rising, single point].
Take `O=C1/C(=C\c2cc3c(cc2Br)OCO3)N2CCC1CC2`: the AC50 under setting [1] was 20.6 µM [falling, single point].
Same read-out and setting: for `COC(=O)C1=C(c2ccc(F)cc2OCc2ccccc2)C[C@@H]2CC[C@H]1N2C(=O)NC1Cc2ccccc2C1` the value was 0.731 µM [rising, full curve].
As for `Cc1ccc(C2N3CCCN23)cc1` (centres undefined), the half-maximal activity concentration (AC50) under setting [1] is 3.16 µM [rising, partial curve, poor fit].
Still for that read-out and setting: for `Cc1ccc(-c2cc(-c3ccc(C)cc3)[n+](-c3ccccc3)c(-c3ccc(C)cc3)c2)cc1` the value was 6.51 µM [falling, partial curve].
Regarding `Clc1ccc2c(c1)C(c1ccccc1Cl)=NCc1nnc(Br)n1-2`, the AC50 by setting is: under setting [1], 18.4 µM [falling, single point]; under setting [2], 23.1 µM [rising, partial curve, poor fit].
With `CC12CC[C@H]3[C@@H](CCC4(O)C[C@H](O)CCC34/C=N/NC(=O)c3ccccc3Cl)C1(O)CCC2C1=CC(=O)OC1` (some centres undefined), the concentration at half-maximal activity (AC50) under setting [1] was 3.16 µM [falling, full curve, poor fit].
`COc1ccc(Cc2nccc3cc(OC)c(OC)cc23)cc1OC`: the AC50 is 11.2 µM [rising, partial curve, poor fit] under setting [1] and 18.4 µM [falling, partial curve] under setting [2].
